The list shows a part of the results.

Amino acid sequences for entries named in this document (tags omitted). A change or cut given only in a name is not applied to a line headed by its entry.
UniProt P12074, whole entry, looked up: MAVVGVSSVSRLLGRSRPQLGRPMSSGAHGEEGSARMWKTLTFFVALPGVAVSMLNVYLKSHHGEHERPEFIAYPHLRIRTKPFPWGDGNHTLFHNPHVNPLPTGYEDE
UniProt P20674, whole entry, looked up: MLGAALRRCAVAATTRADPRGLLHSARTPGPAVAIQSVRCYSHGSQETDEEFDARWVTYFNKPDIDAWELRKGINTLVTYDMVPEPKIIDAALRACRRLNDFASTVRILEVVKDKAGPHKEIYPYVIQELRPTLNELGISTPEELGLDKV
UniProt P49747: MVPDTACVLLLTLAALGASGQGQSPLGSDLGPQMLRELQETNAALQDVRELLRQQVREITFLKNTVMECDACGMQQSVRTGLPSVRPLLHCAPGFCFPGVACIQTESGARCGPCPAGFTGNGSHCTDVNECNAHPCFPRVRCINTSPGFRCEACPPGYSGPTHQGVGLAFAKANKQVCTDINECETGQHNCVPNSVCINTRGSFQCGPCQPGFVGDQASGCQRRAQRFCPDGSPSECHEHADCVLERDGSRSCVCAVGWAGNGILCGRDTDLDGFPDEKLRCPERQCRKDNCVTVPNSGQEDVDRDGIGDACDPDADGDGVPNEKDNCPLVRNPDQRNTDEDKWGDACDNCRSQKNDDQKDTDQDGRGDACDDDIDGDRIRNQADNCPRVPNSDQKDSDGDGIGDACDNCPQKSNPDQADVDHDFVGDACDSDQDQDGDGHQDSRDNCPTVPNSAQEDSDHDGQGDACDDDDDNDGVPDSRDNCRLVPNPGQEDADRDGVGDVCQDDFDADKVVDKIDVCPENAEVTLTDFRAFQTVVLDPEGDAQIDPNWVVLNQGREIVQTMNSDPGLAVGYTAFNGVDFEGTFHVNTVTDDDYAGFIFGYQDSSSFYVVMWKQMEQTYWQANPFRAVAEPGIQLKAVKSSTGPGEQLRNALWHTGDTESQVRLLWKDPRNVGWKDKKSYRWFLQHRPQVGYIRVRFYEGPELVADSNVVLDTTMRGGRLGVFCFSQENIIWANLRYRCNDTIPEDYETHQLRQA
UniProt P02511: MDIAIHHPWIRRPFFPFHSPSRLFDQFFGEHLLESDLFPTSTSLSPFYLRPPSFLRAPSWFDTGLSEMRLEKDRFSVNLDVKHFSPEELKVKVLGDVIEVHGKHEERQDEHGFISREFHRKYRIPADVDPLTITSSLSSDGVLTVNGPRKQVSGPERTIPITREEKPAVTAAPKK
UniProt Q9NX08, whole entry, looked up: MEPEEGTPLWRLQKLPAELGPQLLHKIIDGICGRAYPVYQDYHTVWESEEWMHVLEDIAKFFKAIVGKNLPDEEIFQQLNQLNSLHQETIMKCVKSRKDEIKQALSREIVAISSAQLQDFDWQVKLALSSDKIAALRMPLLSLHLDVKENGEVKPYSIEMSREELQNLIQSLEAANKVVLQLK
UniProt Q92828: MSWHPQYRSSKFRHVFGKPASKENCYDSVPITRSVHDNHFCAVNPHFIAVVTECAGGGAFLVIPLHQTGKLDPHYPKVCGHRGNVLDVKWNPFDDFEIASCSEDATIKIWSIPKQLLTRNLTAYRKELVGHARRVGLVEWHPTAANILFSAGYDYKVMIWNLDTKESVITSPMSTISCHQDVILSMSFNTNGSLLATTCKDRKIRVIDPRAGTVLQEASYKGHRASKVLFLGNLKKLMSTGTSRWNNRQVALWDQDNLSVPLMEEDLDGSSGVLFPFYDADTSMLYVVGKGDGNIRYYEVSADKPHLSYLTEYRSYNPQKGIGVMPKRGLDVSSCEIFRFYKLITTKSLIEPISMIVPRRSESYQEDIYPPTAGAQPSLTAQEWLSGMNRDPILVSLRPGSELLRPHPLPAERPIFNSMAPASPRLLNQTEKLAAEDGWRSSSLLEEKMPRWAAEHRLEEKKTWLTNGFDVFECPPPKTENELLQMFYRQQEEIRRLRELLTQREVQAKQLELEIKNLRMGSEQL
UniProt Q9UBW8: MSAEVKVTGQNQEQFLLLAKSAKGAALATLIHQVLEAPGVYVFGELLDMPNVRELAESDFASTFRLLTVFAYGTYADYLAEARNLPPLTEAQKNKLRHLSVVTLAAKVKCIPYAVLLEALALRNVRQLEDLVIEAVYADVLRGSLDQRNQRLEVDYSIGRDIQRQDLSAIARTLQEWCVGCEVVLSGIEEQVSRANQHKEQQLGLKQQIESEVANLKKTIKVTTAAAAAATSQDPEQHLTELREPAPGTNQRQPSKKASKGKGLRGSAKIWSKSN
UniProt O14548: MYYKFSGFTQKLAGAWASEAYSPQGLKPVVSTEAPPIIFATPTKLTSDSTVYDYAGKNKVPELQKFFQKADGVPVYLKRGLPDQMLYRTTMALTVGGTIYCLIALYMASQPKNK
UniProt Q53ET0: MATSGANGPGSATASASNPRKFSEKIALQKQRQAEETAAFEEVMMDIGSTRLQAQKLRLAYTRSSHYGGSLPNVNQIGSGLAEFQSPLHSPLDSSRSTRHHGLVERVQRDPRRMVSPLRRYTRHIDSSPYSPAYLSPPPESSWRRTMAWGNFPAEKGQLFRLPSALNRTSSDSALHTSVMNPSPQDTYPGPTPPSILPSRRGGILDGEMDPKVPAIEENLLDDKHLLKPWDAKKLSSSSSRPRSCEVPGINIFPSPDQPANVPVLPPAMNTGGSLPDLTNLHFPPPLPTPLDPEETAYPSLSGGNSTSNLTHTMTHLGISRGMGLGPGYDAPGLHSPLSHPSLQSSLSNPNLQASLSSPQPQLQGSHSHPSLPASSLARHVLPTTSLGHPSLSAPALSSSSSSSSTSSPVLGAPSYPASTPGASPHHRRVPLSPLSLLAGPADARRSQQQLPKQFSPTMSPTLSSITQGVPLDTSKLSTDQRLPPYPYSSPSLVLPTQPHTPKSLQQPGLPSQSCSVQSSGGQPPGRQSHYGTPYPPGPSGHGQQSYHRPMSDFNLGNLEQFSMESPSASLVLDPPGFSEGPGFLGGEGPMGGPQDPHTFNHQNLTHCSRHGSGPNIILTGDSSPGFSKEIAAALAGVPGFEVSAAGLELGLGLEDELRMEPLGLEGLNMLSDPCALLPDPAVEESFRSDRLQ
UniProt Q9BSW2: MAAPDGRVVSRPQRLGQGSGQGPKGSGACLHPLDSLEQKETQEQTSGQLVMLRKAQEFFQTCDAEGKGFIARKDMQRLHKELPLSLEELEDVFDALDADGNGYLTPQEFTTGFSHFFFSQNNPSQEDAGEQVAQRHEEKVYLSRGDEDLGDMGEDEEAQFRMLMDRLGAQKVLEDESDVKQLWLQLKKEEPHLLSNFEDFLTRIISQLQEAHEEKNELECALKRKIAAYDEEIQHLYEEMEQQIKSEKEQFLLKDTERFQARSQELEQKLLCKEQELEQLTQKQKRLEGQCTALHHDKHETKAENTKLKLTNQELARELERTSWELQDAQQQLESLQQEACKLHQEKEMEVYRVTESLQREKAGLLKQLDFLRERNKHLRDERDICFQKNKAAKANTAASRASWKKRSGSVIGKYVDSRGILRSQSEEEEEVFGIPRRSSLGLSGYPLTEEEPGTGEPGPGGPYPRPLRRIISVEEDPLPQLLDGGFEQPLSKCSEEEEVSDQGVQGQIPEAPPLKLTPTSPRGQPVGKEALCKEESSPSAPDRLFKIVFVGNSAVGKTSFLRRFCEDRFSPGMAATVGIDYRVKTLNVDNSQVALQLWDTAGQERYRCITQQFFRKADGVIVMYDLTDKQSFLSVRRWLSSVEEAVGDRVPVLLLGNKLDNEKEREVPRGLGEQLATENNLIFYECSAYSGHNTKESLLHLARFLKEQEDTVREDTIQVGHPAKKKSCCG
UniProt Q49AN0: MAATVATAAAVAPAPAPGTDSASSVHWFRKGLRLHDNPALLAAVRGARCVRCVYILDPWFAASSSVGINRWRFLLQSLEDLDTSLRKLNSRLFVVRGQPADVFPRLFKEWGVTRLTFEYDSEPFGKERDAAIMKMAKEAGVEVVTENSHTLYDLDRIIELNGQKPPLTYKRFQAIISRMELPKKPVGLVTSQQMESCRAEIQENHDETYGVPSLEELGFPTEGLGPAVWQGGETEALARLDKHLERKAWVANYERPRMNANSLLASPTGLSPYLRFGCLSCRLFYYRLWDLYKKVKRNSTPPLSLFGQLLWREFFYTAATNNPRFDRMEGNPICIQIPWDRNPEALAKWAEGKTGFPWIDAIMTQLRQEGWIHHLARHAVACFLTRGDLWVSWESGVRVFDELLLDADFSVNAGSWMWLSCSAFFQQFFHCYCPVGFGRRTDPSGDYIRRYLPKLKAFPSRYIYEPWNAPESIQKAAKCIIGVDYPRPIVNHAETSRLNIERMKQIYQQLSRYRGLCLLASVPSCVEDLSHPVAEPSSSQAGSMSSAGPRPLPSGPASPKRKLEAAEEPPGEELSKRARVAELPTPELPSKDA
UniProt Q70SY1: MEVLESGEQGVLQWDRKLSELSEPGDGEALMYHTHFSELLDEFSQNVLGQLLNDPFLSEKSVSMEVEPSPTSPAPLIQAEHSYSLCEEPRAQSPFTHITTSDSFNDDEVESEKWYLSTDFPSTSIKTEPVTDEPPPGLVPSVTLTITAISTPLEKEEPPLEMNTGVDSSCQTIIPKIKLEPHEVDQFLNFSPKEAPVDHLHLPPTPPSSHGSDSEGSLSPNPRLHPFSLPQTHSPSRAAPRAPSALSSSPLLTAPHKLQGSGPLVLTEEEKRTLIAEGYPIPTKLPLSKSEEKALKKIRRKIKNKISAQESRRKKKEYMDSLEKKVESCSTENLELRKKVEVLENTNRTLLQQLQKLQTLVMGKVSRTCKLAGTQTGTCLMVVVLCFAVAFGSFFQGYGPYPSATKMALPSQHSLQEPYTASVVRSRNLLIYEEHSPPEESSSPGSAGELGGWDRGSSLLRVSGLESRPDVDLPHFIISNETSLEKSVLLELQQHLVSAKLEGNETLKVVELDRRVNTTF
UniProt P02461, whole entry, looked up: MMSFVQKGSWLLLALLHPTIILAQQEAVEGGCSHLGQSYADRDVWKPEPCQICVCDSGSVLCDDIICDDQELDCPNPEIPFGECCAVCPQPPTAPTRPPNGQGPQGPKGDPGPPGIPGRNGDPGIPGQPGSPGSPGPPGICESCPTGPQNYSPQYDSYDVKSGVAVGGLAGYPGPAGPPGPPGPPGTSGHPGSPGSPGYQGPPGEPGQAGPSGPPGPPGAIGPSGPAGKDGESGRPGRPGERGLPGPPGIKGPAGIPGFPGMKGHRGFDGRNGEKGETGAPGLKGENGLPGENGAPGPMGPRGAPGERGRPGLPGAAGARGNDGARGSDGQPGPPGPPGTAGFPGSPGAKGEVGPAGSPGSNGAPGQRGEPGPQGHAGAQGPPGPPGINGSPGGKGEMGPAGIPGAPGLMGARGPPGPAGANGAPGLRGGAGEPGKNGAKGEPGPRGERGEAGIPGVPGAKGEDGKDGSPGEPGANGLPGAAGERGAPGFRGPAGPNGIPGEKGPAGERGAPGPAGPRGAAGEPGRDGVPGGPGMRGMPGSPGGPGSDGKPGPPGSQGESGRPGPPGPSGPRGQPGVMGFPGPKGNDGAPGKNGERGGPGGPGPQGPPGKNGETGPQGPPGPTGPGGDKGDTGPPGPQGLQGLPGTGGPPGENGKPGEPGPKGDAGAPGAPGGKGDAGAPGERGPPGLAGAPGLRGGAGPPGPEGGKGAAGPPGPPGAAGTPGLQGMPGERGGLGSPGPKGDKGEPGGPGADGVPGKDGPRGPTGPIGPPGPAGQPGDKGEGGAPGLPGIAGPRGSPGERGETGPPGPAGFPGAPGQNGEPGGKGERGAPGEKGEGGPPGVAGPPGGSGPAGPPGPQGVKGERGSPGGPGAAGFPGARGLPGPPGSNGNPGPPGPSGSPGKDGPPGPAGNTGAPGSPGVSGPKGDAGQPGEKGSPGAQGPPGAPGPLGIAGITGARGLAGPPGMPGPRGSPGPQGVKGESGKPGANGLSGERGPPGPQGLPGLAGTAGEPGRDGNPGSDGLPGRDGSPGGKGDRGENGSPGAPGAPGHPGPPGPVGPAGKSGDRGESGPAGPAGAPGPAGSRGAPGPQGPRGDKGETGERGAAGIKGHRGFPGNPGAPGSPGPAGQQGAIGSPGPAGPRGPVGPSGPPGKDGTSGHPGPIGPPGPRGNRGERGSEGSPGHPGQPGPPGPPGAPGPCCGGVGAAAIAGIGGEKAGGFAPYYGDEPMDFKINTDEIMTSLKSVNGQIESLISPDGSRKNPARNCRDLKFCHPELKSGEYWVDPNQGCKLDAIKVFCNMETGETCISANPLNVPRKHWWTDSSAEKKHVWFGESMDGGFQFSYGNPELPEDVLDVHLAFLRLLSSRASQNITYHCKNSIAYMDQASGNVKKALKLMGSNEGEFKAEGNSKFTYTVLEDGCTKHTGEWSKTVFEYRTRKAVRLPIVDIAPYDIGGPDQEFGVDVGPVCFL
UniProt Q9UJA2: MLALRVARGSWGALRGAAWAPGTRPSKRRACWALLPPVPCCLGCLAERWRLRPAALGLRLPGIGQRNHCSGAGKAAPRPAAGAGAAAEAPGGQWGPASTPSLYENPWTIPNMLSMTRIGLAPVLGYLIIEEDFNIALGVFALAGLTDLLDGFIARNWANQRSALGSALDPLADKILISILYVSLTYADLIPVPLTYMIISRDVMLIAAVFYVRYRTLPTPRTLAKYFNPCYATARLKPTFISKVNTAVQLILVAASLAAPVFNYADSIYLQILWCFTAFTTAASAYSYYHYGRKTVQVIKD

Assay in all cases: log2 fold change, soluble protein after heating vs DMSO (PISA); higher = thermal stabilisation; K562 cells, 10 uM, 30 min; active = over 0.2 and 3.5 SD of the protein, either way, in both replicates (recomputed)
Compound in test [1]: NC(=O)Nc1cc(-c2cccc(F)c2)sc1C(=O)N[C@H]1CCCNC1
An outline of the steps: (§1)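 Thermal stability values are relative to control samples and come from duplicates. They are expressed as log2 fold changes. For measurement, K562 cells (2×10^6 cells/mL) received 10 μM compound for 30 min, and aliquots were heated for 3 min over 48°C-58°C, pooled, and extracted at 4°C in PBS with 0.5% NP-40. Soluble protein, the supernatant after 21,000xg for 90 min, was quantified by TMTpro 16plex LC-MS/MS with equalised channel sums.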

Compound in test [2]: NC(=O)c1cnc(N[C@@H]2CCCC[C@@H]2N)nc1Nc1cccc(-n2nccn2)c1
A digest of the protocol: as §1

Compound in test [3]: NC1(c2ccc(-c3nc4ccn5c(=O)[nH]nc5c4cc3-c3ccccc3)cc2)CCC1
An outline of the steps:
as §1

Compound in test [4]: NCC(=O)Nc1ccc(-n2nc(C(F)(F)F)cc2-c2ccc3c(ccc4ccccc43)c2)cc1
A digest of the protocol: as §1

Compound in the next test: Nc1ccccc1NC(=O)c1ccc(CNC(=O)OCc2cccnc2)cc1 [entinostat]
A digest of the protocol:
as §1

Compound in the next test: O=C(CCCCCCNC(=O)c1cnc(N(c2ccccc2)c2ccccc2Cl)nc1)NO [citarinostat]
A digest of the protocol: as §1

Compound in another test: O=C(O)c1ccc2c(c1)nc(Nc1cccc(Cl)c1)c1ccncc12 [silmitasertib]
An outline of the steps:
as §1

Compound in test [5]: c1cc(OCCN2CCCCC2)cc(-c2n[nH]c3ccc(-c4nnc[nH]4)cc23)c1
A digest of the protocol:
as §1

Compound in a further test: O=C(CCCCCCC(=O)Nc1ccccc1)NO [vorinostat]
An outline of the steps: as §1

Compound in test [6]: O=C1NC(=O)C(c2cnc3ccccn23)=C1c1cn2c3c(cc(F)cc13)CN(C(=O)N1CCCCC1)CC2
A digest of the protocol: as §1

In the case of COX6A1 (UniProt P12074), the log2 fold change in test [1] was inactive: -0.027; in [2], inactive: -0.109; in [3], inactive: 0.082; in test [4] it was inactive: 0.023; in the test with entinostat, inactive: 0.053; with citarinostat, inactive: -0.1. Moreover, the log2 fold change in the test with silmitasertib is inactive: -0.101; in test [5] it was inactive: -0.257.

COX5A (UniProt P20674): the log2 fold change is inactive: 0.019 in test [1]; inactive: 0.103 in test [2]; inactive: 0.117 in [3]; inactive: 0.024 in [4]; inactive: 0.024 with entinostat; inactive: -0.078 with vorinostat. Besides, the log2 fold change is inactive: -0.041 in the test with citarinostat, inactive: -0.055 in the test with silmitasertib, inactive: -0.228 in test [6] and inactive: -0.046 in test [5].

COMP (UniProt P49747): the log2 fold change is inactive: -0.246 in test [1]; inactive: -0.075 in test [2]; inactive: 0.14 in test [3]; inactive: -0.166 with entinostat; inactive: 0.352 with vorinostat; inactive: -0.112 in the test with citarinostat. The log2 fold change with silmitasertib is inactive: 0.166; in [5], inactive: 0.311.

Take CRYAB (UniProt P02511): the log2 fold change in test [1] was inactive: -0.183; in test [2], inactive: 0.119; in test [4] it was inactive: -0.09; with entinostat, inactive: 0.07; with citarinostat it was inactive: 0; in [6] it was inactive: -0.037. For the same target, in [5], the log2 fold change was inactive: -0.168.

COMMD8 (UniProt Q9NX08): the log2 fold change in test [1] is inactive: 0.062; in test [2] it was inactive: -0.013; in test [3], inactive: -0.108; with entinostat, inactive: 0.096; in the test with vorinostat, inactive: -0.036; in the test with citarinostat, inactive: 0.017. Besides, the figures for the log2 fold change (in the test with silmitasertib; in [6]; in [5]) were inactive: 0.03, inactive: 0.055 and inactive: -0.068, respectively.

As to CORO2A (UniProt Q92828), the log2 fold change in test [1] is inactive: 0.069; in test [2], inactive: -0.027; in test [3] it was active: -0.287; in test [4] it was inactive: -0.085; with entinostat, inactive: -0.061; in the test with vorinostat, inactive: 0.027. The results for the log2 fold change (with citarinostat; in the test with silmitasertib; in test [5]) were inactive: -0.114, inactive: -0.019 and inactive: -0.212, respectively.

Take COPS7A (UniProt Q9UBW8): the log2 fold change is inactive: 0.038 in test [1]; inactive: 0.04 in [2]; inactive: -0.057 in test [3]; inactive: -0.031 in [4]; inactive: 0.005 in the test with entinostat; inactive: 0.075 with vorinostat. Besides, the log2 fold change with citarinostat is inactive: 0.049; with silmitasertib it was inactive: 0.016; in test [6], inactive: -0.01; in [5], inactive: -0.017.

Turning to COX7A2L (UniProt O14548), the log2 fold change in test [1] was inactive: -0.025; in test [2], inactive: -0.044; in test [3], inactive: -0.078; in test [4], inactive: -0.069; with entinostat, inactive: 0.049; with vorinostat, inactive: -0.1. The log2 fold change is inactive: -0.031 in the test with citarinostat, inactive: -0.006 with silmitasertib, inactive: -0.076 in test [6] and inactive: -0.035 in test [5].

In the case of CPED1 (UniProt A4D0V7), the log2 fold change was inactive: 0.026 in test [1]; inactive: 0.017 in [2]; inactive: 0.044 in test [3]; inactive: 0.054 in test [4]; inactive: 0.05 with entinostat; inactive: 0.026 in the test with vorinostat. The log2 fold change with citarinostat is inactive: 0.033; with silmitasertib, inactive: 0.113; in [6], inactive: 0.019; in test [5], inactive: -0.15.

For CRTC2 (UniProt Q53ET0), the log2 fold change was active: -0.814 in [1]; inactive: -0.001 in [2]; inactive: -0.13 in test [3]; inactive: 0.038 in [4]; inactive: 0.004 with entinostat; inactive: -0.099 with citarinostat. The log2 fold change in the test with silmitasertib was inactive: 0.092; in test [6] it was inactive: -0.125; in test [5], inactive: -0.143.

Turning to CRACR2A isoform 2 (UniProt Q9BSW2), the log2 fold change is inactive: -0.012 in test [1]; inactive: 0.076 in test [2]; inactive: -0.099 in test [3]; inactive: -0.05 in test [4]; inactive: -0.15 with entinostat; inactive: -0.03 with vorinostat. The log2 fold change in the test with citarinostat was inactive: -0.016; with silmitasertib, inactive: 0.103; in test [6] it was inactive: 0.054; in test [5] it was inactive: 0.134.

As to CRY2 (UniProt Q49AN0), the results for the log2 fold change in [2] and in [4] were inactive: 0.032 and inactive: -0.013, respectively.

Take COQ10B (UniProt Q9H8M1): the log2 fold change was inactive: -0.235 in test [1]; inactive: -0.194 with entinostat; inactive: 0.066 with citarinostat; inactive: 0.023 in test [6]; inactive: 0.251 in test [5].

Take COMMD3-BMI1 (UniProt R4GMX3): the log2 fold change is inactive: 0.003 in [1]; inactive: 0.076 in [2]; inactive: -0.062 with entinostat; inactive: 0.109 with vorinostat; inactive: -0.012 in test [6].

With CREB3L2 (UniProt Q70SY1), the log2 fold change was inactive: -0.102 in test [2]; inactive: -0.074 in test [3]; inactive: 0.035 in test [4]; inactive: 0.023 with silmitasertib; inactive: -0.076 in [6].

With COL3A1 (UniProt P02461), the values for the log2 fold change (in test [4]; with vorinostat; in test [6]) were inactive: 0.213, inactive: 0.032 and inactive: 0.089, respectively.

CORO6 isoform 5 (UniProt Q6QEF8): the log2 fold change in [1] is inactive: -0.048; in test [2], inactive: -0.046; in test [4] it was inactive: -0.225; with entinostat, inactive: 0.119; in test [6] it was inactive: -0.068.

On to CRLS1 (UniProt Q9UJA2), for which the log2 fold change in [1] was active: 0.323; in test [3], inactive: 0.027; in test [4], inactive: 0.06; in the test with entinostat, inactive: 0.151; with vorinostat it was inactive: -0.005; with citarinostat, inactive: 0.012. The log2 fold change with silmitasertib is inactive: 0.017; in [5], inactive: -0.051.

With COP1 (UniProt Q8NHY2), the log2 fold change in test [2] is inactive: -0.371.

Source of the values: the supplement of paper PMC10849652.
